In paper PMC6315541, “Nile Tilapia Derived Antimicrobial Peptide TP4 Exerts Antineoplastic Activity Through Microtubule Disruption” (Marine Drugs, 2018):
Results are given in words; binding and its absence hold for the method and conditions named. Binding seen in cells or lysates may run through a third protein. Some results given as binding are weak or reduced against the parent protein; the word gives no strength.

Amino acid sequences for entries named in this document (tags omitted).
UniProt Q9BQE3: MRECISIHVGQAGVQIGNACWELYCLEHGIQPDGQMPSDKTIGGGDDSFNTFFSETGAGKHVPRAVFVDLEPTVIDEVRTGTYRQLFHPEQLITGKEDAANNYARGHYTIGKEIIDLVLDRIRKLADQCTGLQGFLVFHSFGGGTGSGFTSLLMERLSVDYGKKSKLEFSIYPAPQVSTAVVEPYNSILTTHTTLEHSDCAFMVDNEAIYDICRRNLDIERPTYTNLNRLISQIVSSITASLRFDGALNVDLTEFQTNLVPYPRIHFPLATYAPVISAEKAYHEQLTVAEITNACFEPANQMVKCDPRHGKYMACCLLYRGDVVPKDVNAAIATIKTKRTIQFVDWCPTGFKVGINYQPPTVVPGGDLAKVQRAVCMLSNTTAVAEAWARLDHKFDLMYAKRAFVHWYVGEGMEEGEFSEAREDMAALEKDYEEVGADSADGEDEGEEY

Target: T1, Tilapia piscidin (TP) 4 (Nile tilapia (Oreochromis niloticus))
T1 sequence (peptide): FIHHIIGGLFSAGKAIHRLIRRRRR
Experiment: co-IP; A549 cells treated with 10 μg/mL TP4 for 3 h; lysate precipitated with rabbit anti-TP4 antibody and magnetic beads (rabbit IgG as control); blot with α-Tubulin antibody (clone DM1A); only the target purified

α-Tubulin (from UniProt Q9BQE3 1-449)
binding: binds
